Assay: Bromophenol blue test for SiQAC bonded to PMMA coupon surface
Settings: Table 2 composition 1:50

With `CCCCCCCCCCCCCCCCCC[N+](C)(C)CCC[Si](OC)(OC)OC.[Cl-]` [SiQAC, 3-(trimethoxysilyl) propyldimethyloctadecyl ammonium chloride] the “bromophenol blue colour of coupon surface (onset of film formation)” value (PMMA coupons after first soak and brushing) was “turned blue” and the “bromophenol blue colour of coupon surface (presence of SiQAC bonded to the surface)” value (PMMA coupons after tenth soak/brush cycle) was “turned blue”.
